Measured values taken from the supplement of paper PMC6078165.
The reference is the same well before dosing, and untreated signal decays as well.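 Fibroblast labels denote human fibroblasts, mainly primary ones from uterus (C12385, HUF), lung (H6013), bone (Hs27A), adrenal (HADF) and skin (WS1), plus mammary HMF and breast cancer-associated Hs343T. Cancer cells are basal-like or mesenchymal-like triple-negative breast cancer lines. A hit is a response shift exceeding 3x replicate standard deviation. The tissue of the other fibroblasts is not given here.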

Tested on: Hs578T
Experiment: relative JC-1 red fluorescence (viability) vs pre-drug, coculture with fibroblast (fraction); higher = more viable cancer cells
Experimental: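 JC-1 labelled TNBC cells cocultured 1:1 (1,500 cells each) with CellTrace Violet stained primary or stromal fibroblasts in 384-well plates in FluoroBrite medium, treated with one of 42 anticancer drugs at 0.1, 1, 10 or 100 uM. JC-1 red fluorescence (mitochondrial integrity in cancer cells only) was read by plate reader every 8 h for 72 h. Values are normalised to each well's pre-drug value. The stock of one drug was tenfold lower, so its dose labels may be too high.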

CC(=O)O[C@@]12CO[C@@H]1C[C@H](O)[C@@]1(C)C(=O)[C@H](O)C3=C(C)[C@@H](OC(=O)[C@H](O)[C@@H](NC(=O)OC(C)(C)C)c4ccccc4)C[C@@](O)([C@@H](OC(=O)c4ccccc4)[C@H]21)C3(C)C [Docetaxel]
relative JC-1 red fluorescence
Conditions	8 h	16 h	24 h	32 h	40 h	48 h	56 h	64 h	72 h
0.1 µM	0.911	0.798	0.703	0.606	0.506	0.473	0.471	0.453	0.466
1 µM	0.875	0.717	0.6968	0.663	0.609	0.581	0.585	0.569	0.583
10 µM	0.8886	0.81527	0.7901	0.732	0.646	0.6	0.594	0.569	0.581
100 µM	0.905	0.745	0.67	0.601	0.52	0.472	0.456	0.433	0.435

relative JC-1 red fluorescence
Conditions	8 h	16 h	24 h	32 h	40 h	48 h	56 h	64 h	72 h
0.1 µM, coculture fibroblast: C12385	0.833	0.692	0.634	0.512	0.428	0.393	0.37	0.379	0.395
0.1 µM, coculture fibroblast: H6013	0.8282	0.8039	0.744	0.666	0.613	0.611	0.607	0.63	0.629
0.1 µM, coculture fibroblast: H6019	0.761	0.661	0.644	0.548	0.513	0.5	0.483	0.492	0.487
0.1 µM, coculture fibroblast: H6076	0.893	0.823	0.698	0.609	0.53	0.513	0.506	0.508	0.523
0.1 µM, coculture fibroblast: H6231	0.911	0.82	0.73	0.668	0.578	0.554	0.5273	0.517	0.5233
0.1 µM, coculture fibroblast: HADF	0.856	0.745	0.648	0.547	0.48	0.4595	0.4391	0.4448	0.437
0.1 µM, coculture fibroblast: HCFa	0.8146	0.7553	0.669	0.545	0.473	0.458	0.439	0.44	0.426
0.1 µM, coculture fibroblast: HCPF	0.865	0.7861	0.7274	0.677	0.593	0.577	0.575	0.555	0.554
0.1 µM, coculture fibroblast: HHSteC	0.873	0.76	0.664	0.54	0.457	0.427	0.407	0.4	0.381
0.1 µM, coculture fibroblast: HMF	0.822	0.735	0.658	0.602	0.503	0.477	0.462	0.457	0.457
0.1 µM, coculture fibroblast: HPFa	0.93	0.86	0.772	0.632	0.551	0.522	0.494	0.486	0.463
0.1 µM, coculture fibroblast: HUF	0.8955	0.7484	0.7379	0.6197	0.555	0.539	0.523	0.537	0.546
0.1 µM, coculture fibroblast: Hs27A	0.884	0.785	0.677	0.561	0.489	0.49	0.478	0.49	0.476
0.1 µM, coculture fibroblast: Hs343T	0.866	0.758	0.698	0.632	0.529	0.505	0.481	0.477	0.494
0.1 µM, coculture fibroblast: WS1	0.821	0.699	0.649	0.539	0.449	0.421	0.392	0.4	0.408
1 µM, coculture fibroblast: C12385	0.8385	0.733	0.658	0.533	0.446	0.405	0.388	0.395	0.404
1 µM, coculture fibroblast: H6013	0.882	0.8037	0.779	0.72	0.679	0.688	0.689	0.71	0.701
1 µM, coculture fibroblast: H6019	0.783	0.64	0.664	0.57	0.557	0.551	0.541	0.557	0.553
1 µM, coculture fibroblast: H6076	0.888	0.7912	0.7015	0.662	0.613	0.622	0.628	0.639	0.663
1 µM, coculture fibroblast: H6231	0.858	0.7788	0.65617	0.612	0.543	0.523	0.504	0.486	0.506
1 µM, coculture fibroblast: HADF	0.929	0.8409	0.7871	0.694	0.628	0.612	0.595	0.6	0.593
1 µM, coculture fibroblast: HCFa	0.89	0.81	0.738	0.67	0.628	0.63	0.615	0.626	0.609
1 µM, coculture fibroblast: HCPF	0.9115	0.7974	0.727	0.6629	0.5763	0.542	0.544	0.512	0.515
1 µM, coculture fibroblast: HHSteC	0.893	0.786	0.69	0.593	0.532	0.528	0.514	0.517	0.502
1 µM, coculture fibroblast: HMF	0.812	0.68	0.602	0.559	0.502	0.476	0.463	0.459	0.468
1 µM, coculture fibroblast: HPFa	0.944	0.919	0.776	0.672	0.599	0.57	0.536	0.522	0.5
1 µM, coculture fibroblast: HUF	0.882	0.786	0.737	0.611	0.564	0.53	0.507	0.521	0.526
1 µM, coculture fibroblast: Hs27A	0.903	0.864	0.775	0.685	0.631	0.619	0.606	0.612	0.59
1 µM, coculture fibroblast: Hs343T	0.862	0.716	0.631	0.603	0.514	0.488	0.468	0.468	0.49
1 µM, coculture fibroblast: WS1	0.82	0.69	0.648	0.5339	0.4654	0.445	0.424	0.433	0.442
10 µM, coculture fibroblast: C12385	0.813	0.762	0.712	0.61	0.541	0.513	0.491	0.49	0.491
10 µM, coculture fibroblast: H6013	0.8658	0.85	0.821	0.793	0.765	0.761	0.762	0.773	0.762
10 µM, coculture fibroblast: H6019	0.812	0.75	0.713	0.625	0.592	0.566	0.531	0.529	0.521
10 µM, coculture fibroblast: H6076	0.917	0.883	0.851	0.8083	0.7587	0.763	0.767	0.771	0.786
10 µM, coculture fibroblast: H6231	0.899	0.812	0.743	0.704	0.63	0.6149	0.5779	0.559	0.559
10 µM, coculture fibroblast: HADF	0.897	0.858	0.788	0.703	0.636	0.604	0.567	0.548	0.524
10 µM, coculture fibroblast: HCFa	0.851	0.804	0.7144	0.6225	0.553	0.525	0.497	0.496	0.483
10 µM, coculture fibroblast: HCPF	0.926	0.869	0.7967	0.725	0.652	0.627	0.602	0.56	0.531
10 µM, coculture fibroblast: HHSteC	0.8912	0.867	0.824	0.742	0.686	0.659	0.652	0.653	0.636
10 µM, coculture fibroblast: HMF	0.877	0.8517	0.814	0.775	0.715	0.7	0.683	0.664	0.644
10 µM, coculture fibroblast: HPFa	0.948	0.877	0.881	0.811	0.764	0.729	0.706	0.694	0.664
10 µM, coculture fibroblast: HUF	0.866	0.765	0.76	0.648	0.577	0.552	0.539	0.541	0.539
10 µM, coculture fibroblast: Hs27A	0.919	0.861	0.797	0.709	0.649	0.632	0.603	0.5893	0.5593
10 µM, coculture fibroblast: Hs343T	0.911	0.837	0.765	0.711	0.628	0.6	0.558	0.544	0.532
10 µM, coculture fibroblast: WS1	0.8211	0.7746	0.766	0.672	0.619	0.603	0.569	0.558	0.555
100 µM, coculture fibroblast: C12385	0.845	0.737	0.658	0.555	0.4788	0.44788	0.4128	0.388	0.375
100 µM, coculture fibroblast: H6013	0.883	0.8	0.757	0.75	0.724	0.731	0.729	0.742	0.737
100 µM, coculture fibroblast: H6019	0.798	0.694	0.628	0.5384	0.489	0.466	0.449	0.439	0.428
100 µM, coculture fibroblast: H6076	0.905	0.812	0.729	0.701	0.64	0.636	0.618	0.607	0.605
100 µM, coculture fibroblast: H6231	0.885	0.79	0.7005	0.646	0.5856	0.5516	0.52	0.4977	0.486
100 µM, coculture fibroblast: HADF	0.9214	0.819	0.767	0.73	0.677	0.648	0.61	0.596	0.566
100 µM, coculture fibroblast: HCFa	0.851	0.765	0.71	0.648	0.58	0.553	0.522	0.52	0.501
100 µM, coculture fibroblast: HCPF	0.913	0.82374	0.748	0.692	0.613	0.559	0.534	0.49132	0.4548
100 µM, coculture fibroblast: HHSteC	0.893	0.80377	0.725	0.675	0.6017	0.574	0.551	0.541	0.51
100 µM, coculture fibroblast: HMF	0.895	0.778	0.704	0.664	0.579	0.548	0.508	0.483	0.466
100 µM, coculture fibroblast: HPFa	0.9106	0.877	0.787	0.727	0.688	0.647	0.61	0.596	0.57
100 µM, coculture fibroblast: HUF	0.866	0.752	0.726	0.619	0.559	0.524	0.497	0.491	0.49
100 µM, coculture fibroblast: Hs27A	0.8662	0.84729	0.79	0.732	0.649	0.65	0.63	0.626	0.591
100 µM, coculture fibroblast: Hs343T	0.922	0.763	0.7	0.667	0.58	0.538	0.475	0.446	0.424
100 µM, coculture fibroblast: WS1	0.856	0.749	0.656	0.537	0.452	0.415	0.37	0.352	0.333
